This assay relates to MX-1 breast xenograft, nude mice, tumor weight T/C. The assay can be described thus: NCI In Vivo Anticancer Drug Screen. Data for tumor model Human Mammary Carcinoma MX-1 Xenograft (intrarenal inoculation) in NU/NU Swiss (nude) mice. The settings on record: T/C endpoint: mean tumor weight change, higher T/C = larger tumour; for T/C: evaluated on day 11. In short, it runs like this: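 Mice carrying the implanted tumor receive either test agent or vehicle. Tumor size or survival is then recorded for both groups. Results are stated as the treated-to-control quotient.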

[1] abbreviates: dose: 50.0 mg/kg/injection, schedule: Q01DX010 (sc), vehicle: saline with Tween-80.
Where [2] appears, read: dose: 100.0 mg/kg/injection, schedule: Q01DX010 (sc), vehicle: saline with Tween-80.
Setting [3] is: dose: 200.0 mg/kg/injection, schedule: Q01DX010 (sc), vehicle: saline with Tween-80.
The mark [4] stands for this setting: dose: 150.0 mg/kg/injection, schedule: Q04DX003 (ip), vehicle: saline with Tween-80.
The mark [5] stands for this setting: dose: 300.0 mg/kg/injection, schedule: Q04DX003 (ip), vehicle: saline with Tween-80.
The mark [6] stands for this setting: dose: 100.0 mg/kg/injection, schedule: Q04DX003 (sc), vehicle: saline.

The list is a part of this screen's results and no random one: it is rich in T/C values a quarter to a half above the control, in often repeated tests (any T/C) and in doses without a T/C. Other doses and runs of a compound stand elsewhere. T/C: endpoint of the treated group in % of that of the vehicle group. Schedule codes are those of the source, read here as Q, the interval in days (D) or hours (H), X, the number of doses. Some molecules as drawn cover several salts, stereoisomers or complexes of the source; a dose is that of the sample tested. Some T/C values are followed by the survivors on the day toxicity was checked, most often the fifth; where none is given, no animal had died by that day. Some values lie below zero, which means that the treated tumours became smaller. Some entries hold several experiments; the results are listed from low to high. Some doses have a count of surviving animals in place of a T/C: the source holds a T/C of zero for them, seemingly a mark for toxic or unscored doses. Survivors were counted at the toxicity check, usually on the fifth day, unless a day is given; later deaths do not show.

Consider `ClCC[N+]12CC[N+](CCCl)(CC1)C2`, for which the survivor count was 1 of 3 on day 11 (dose: 25.0 mg/kg/injection, schedule: Q01DX010 (sc), vehicle: saline with Tween-80); 0 of 3 on day 11 under setting [1]; 0 of 3 on day 11 (dose: 50.0 mg/kg/injection, schedule: Q01DX010 (sc), vehicle: suspension in saline); 0 of 3 on day 11 under setting [2]; 0 of 3 on day 11 (dose: 100.0 mg/kg/injection, schedule: Q01DX010 (sc), vehicle: suspension in saline); 0 of 3 on day 11 under setting [3]. For the same compound, the survivor count is, setting by setting: (dose: 200.0 mg/kg/injection, schedule: Q01DX010 (sc), vehicle: suspension in saline) 0 of 3 on day 11; (dose: 400.0 mg/kg/injection, schedule: Q01DX010 (sc), vehicle: saline with Tween-80) 0 of 3 on day 11; (dose: 400.0 mg/kg/injection, schedule: Q01DX010 (sc), vehicle: suspension in saline) 0 of 3 on day 11; (dose: 600.0 mg/kg/injection, schedule: Q04DX003 (sc), vehicle: water) 3 of 6 on day 11 and 3 of 5 on day 11; (dose: 1200.0 mg/kg/injection, schedule: Q04DX003 (sc), vehicle: water) 0 of 6 on day 11; (dose: 2400.0 mg/kg/injection, schedule: Q04DX003 (sc), vehicle: water) 0 of 6 on day 11. Further, the T/C reads like this: under setting [1], 20, 81 [2 of 2 alive on day 11], 84 % of control; under setting [2], -3 [2 of 2 alive on day 11], 37, 58 % of control [2 of 2 alive on day 11]; under setting [3], -75 [2 of 3 alive on day 11], 3, 13 % of control [2 of 2 alive on day 11]; (dose: 300.0 mg/kg/injection, schedule: Q04DX003 (sc), vehicle: water) 18 [5 of 6 alive on day 11], 31, 55 % of control.
With `Nc1cccc(=O)[nH]1`, the survivor count (dose: 2400.0 mg/kg/injection, schedule: Q04DX003 (sc), vehicle: saline) was 0 of 6 on day 11.
Consider `CS(=O)(=O)OCCN(CCOS(C)(=O)=O)c1ccc(C=Nc2ccc(-c3csc(COc4ccccc4)n3)cc2)cc1`, for which the survivor count (dose: 400.0 mg/kg/injection, schedule: Q01DX010 (sc), vehicle: Klucel (hydroxypropylcellulose) (HPC)) is given as 0 of 2 on day 11.
Consider `COc1cc([C@@H]2c3cc4c(c(O)c3C[C@H]3COC(=O)[C@@H]32)OCO4)cc(OC)c1OC`, for which the survivor count is, setting by setting: (dose: 8.0 mg/kg/injection, schedule: Q01DX010 (sc), vehicle: saline) 1 of 3 on day 11; (dose: 16.0 mg/kg/injection, schedule: Q01DX010 (sc), vehicle: saline) 0 of 3 on day 11.
As for `COC1=CCC23C(=O)C=CC(=O)C2(C1)C(=O)c1ccccc1C3=O` (centres undefined), the survivor count is, setting by setting: (dose: 75.0 mg/kg/injection, schedule: Q04DX003 (ip), vehicle: saline with Tween-80) 3 of 6 on day 11; under setting [4], 3 of 6 on day 11; under setting [5], 0 of 6 on day 11.
Consider `CC[C@](C)(O)C(=O)O[C@H]1C(=O)O[C@@H]2C[C@H]3C(C)=CC(=O)[C@@H](O)[C@]3(C)[C@H]3[C@@]4(O)OC[C@]32[C@@H]1[C@@H](C)[C@H]4O`, for which the survivor count by setting is: (dose: 1.0 mg/kg/injection, schedule: Q01DX010 (sc), vehicle: Klucel (hydroxypropylcellulose) (HPC)) 3 of 6 on day 11; (dose: 2.0 mg/kg/injection, schedule: Q01DX010 (sc), vehicle: Klucel (hydroxypropylcellulose) (HPC)) 0 of 3 on day 11, 2 of 6 on day 11, 3 of 6 on day 11.
For the compound `Nc1nc2n[nH]nc2c(=O)[nH]1`, the survivor count runs as follows: (dose: 300.0 mg/kg/injection, schedule: Q04DX003 (ip), vehicle: suspension in saline) 2 of 5 on day 11; (dose: 600.0 mg/kg/injection, schedule: Q04DX003 (ip), vehicle: suspension in saline) 0 of 5 on day 11 and 0 of 6 on day 11.
As to `O=C(O)CC(NC(=O)CP(=O)(O)O)C(=O)O` (centres undefined), the T/C (dose: 25.0 mg/kg/injection, schedule: Q01DX010 (sc), vehicle: saline) is 133 % of control [2 of 2 alive on day 11]. Also, the survivor count (dose: 200.0 mg/kg/injection, schedule: Q01DX010 (sc), vehicle: saline) is 1 of 3 on day 11; the survivor count (dose: 400.0 mg/kg/injection, schedule: Q01DX010 (sc), vehicle: saline) is recorded as 0 of 3 on day 11; the survivor count (dose: 800.0 mg/kg/injection, schedule: Q01DX010 (sc), vehicle: saline) is 0 of 3 on day 11.
`CC(=O)C[n+]1ccc(C)cc1Sc1ccccc1C`: the survivor count is, setting by setting: under setting [4], 2 of 6 on day 11; under setting [5], 1 of 6 on day 11; (dose: 600.0 mg/kg/injection, schedule: Q04DX003 (ip), vehicle: saline with Tween-80) 0 of 6 on day 11; (dose: 1200.0 mg/kg/injection, schedule: Q04DX003 (ip), vehicle: saline with Tween-80) 0 of 6 on day 11.
Turning to `Cc1c2ccccc2c(C)c2c1cc(C(=O)O)c1ccccc12`, the T/C (dose: 150.0 mg/kg/injection, schedule: Q04DX003 (ip), vehicle: sodium bicarbonate) is 136 % of control [4 of 6 alive on day 11]. The survivor count is, setting by setting: (dose: 300.0 mg/kg/injection, schedule: Q04DX003 (ip), vehicle: sodium bicarbonate) 1 of 6 on day 11; (dose: 600.0 mg/kg/injection, schedule: Q04DX003 (ip), vehicle: sodium bicarbonate) 0 of 6 on day 11; (dose: 1200.0 mg/kg/injection, schedule: Q04DX003 (ip), vehicle: sodium bicarbonate) 0 of 6 on day 11.
With `O=P1(N(CCCl)CCCl)NCCCO1` (centres undefined), the T/C is, setting by setting: (dose: 3.13 mg/kg/injection, schedule: Q01DX010 (sc), vehicle: saline) 126 % of control; (dose: 12.5 mg/kg/injection, schedule: Q04DX003 (sc), vehicle: saline) -100, -76 [5 of 6 alive on day 11], 14, 32, 61 % of control; (dose: 25.0 mg/kg/injection, schedule: Q04DX003 (sc), vehicle: saline) -100, -98 [5 of 6 alive on day 11], -5, 1, 4 % of control; (dose: 50.0 mg/kg/injection, schedule: Q04DX003 (sc), vehicle: saline) -100, -83 [5 of 6 alive on day 11], -62, -40, -23 % of control; under setting [6], -100 [5 of 6 alive on day 11], -96, -37 % of control. Besides, the survivor count is 0 of 3 on day 11 (dose: 50.0 mg/kg/injection, schedule: Q01DX010 (ip), vehicle: saline); 0 of 3 on day 11 (dose: 50.0 mg/kg/injection, schedule: Q01DX010 (sc), vehicle: saline); 0 of 3 on day 11 (dose: 83.33 mg/kg/injection, schedule: Q04DX003 (ip), vehicle: saline); 0 of 3 on day 11 (dose: 83.33 mg/kg/injection, schedule: Q04DX003 (sc), vehicle: saline); 0 of 3 on day 11 (dose: 100.0 mg/kg/injection, schedule: Q01DX010 (sc), vehicle: saline); 0 of 6 on day 11 and 2 of 4 on day 11 under setting [6]. Also, the survivor count (dose: 166.65 mg/kg/injection, schedule: Q04DX003 (ip), vehicle: saline) is given as 0 of 3 on day 11; the survivor count (dose: 166.65 mg/kg/injection, schedule: Q04DX003 (sc), vehicle: saline) is 0 of 3 on day 11; the survivor count (dose: 333.3 mg/kg/injection, schedule: Q04DX003 (sc), vehicle: saline) is recorded as 0 of 3 on day 11.
Turning to `CCOC(=O)c1ccc(NN=NCCF)cc1`, the T/C (dose: 75.0 mg/kg/injection, schedule: Q04DX003 (ip), vehicle: distilled water + Tween-80 + alcohol) was 134 % of control.

Values taken from PubChem BioAssay AID296 (DTP/NCI, 2004).
